Data on two molecules can be found in PMC6044906.

Assay [1] concerns the target T1, DNAI2 (mouse (endogenous in testes, oviduct, trachea, nasal epithelium)) (UniProt A2AC93).
T1 sequence: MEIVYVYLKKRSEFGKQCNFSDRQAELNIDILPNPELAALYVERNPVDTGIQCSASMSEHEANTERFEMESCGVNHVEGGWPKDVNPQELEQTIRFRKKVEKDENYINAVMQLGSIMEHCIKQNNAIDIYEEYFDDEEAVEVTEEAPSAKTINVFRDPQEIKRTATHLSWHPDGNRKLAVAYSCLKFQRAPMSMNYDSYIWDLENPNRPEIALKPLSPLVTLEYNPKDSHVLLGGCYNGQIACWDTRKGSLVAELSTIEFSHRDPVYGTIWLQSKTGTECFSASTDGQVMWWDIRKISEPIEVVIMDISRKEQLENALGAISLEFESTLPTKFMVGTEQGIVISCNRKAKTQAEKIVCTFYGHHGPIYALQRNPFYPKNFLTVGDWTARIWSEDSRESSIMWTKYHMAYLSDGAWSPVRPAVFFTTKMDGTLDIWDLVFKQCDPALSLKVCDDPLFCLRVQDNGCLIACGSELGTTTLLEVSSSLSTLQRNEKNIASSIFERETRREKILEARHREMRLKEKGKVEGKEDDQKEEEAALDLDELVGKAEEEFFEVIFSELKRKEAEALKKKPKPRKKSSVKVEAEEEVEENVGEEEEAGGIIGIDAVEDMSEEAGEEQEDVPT
As to the kind of experiment: co-IP; endogenous DNAI2 immunoprecipitated from mouse tissue extracts (testes P26, oviduct P7, trachea P7 and P90) of wild type and Zmynd10-/- animals, mild lysis buffer, Protein G magnetic beads, immunoblot for DNAI1 and DNAH5; DNAH5 co-precipitation 0.47 and 0.56 fold reduction in mutant P7 oviduct and trachea.

Assay [2] has as its target T2, DNAI1 (human (endogenous in tracheal epithelial cultures)), Q9UI46.
T2 chain: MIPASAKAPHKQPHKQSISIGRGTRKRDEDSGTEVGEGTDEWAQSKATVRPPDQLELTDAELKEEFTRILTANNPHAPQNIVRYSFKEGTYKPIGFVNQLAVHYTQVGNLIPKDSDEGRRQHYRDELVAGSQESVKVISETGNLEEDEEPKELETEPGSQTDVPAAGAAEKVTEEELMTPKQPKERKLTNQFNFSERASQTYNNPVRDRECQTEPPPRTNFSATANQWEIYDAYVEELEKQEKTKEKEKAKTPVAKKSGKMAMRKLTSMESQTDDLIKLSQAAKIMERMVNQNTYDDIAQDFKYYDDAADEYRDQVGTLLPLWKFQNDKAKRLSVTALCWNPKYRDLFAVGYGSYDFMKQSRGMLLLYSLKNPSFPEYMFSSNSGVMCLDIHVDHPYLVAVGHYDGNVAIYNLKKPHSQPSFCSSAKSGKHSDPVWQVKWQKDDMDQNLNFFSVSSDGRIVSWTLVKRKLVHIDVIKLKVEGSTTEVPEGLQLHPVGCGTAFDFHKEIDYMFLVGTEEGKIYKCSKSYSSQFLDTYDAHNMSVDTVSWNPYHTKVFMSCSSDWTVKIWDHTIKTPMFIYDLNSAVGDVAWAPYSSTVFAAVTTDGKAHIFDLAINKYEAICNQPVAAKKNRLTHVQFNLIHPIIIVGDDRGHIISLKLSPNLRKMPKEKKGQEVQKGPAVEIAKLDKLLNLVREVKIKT
As to the kind of experiment: co-IP; endogenous FKBP8 and DNAI1 immunoprecipitated from lysates of healthy human donor tracheal epithelial cultures (MucilAir, D17 ALI, immature cells), Protein G magnetic beads, immunoblot for DNAH5 and ZMYND10. The settings on record: remark: other sources report otherwise.

These are yes or no findings as the source states them, for the method shown. Binding seen in cells or lysates may run through a third protein. Some binding calls cover weakened binding; strength is not graded here.

B1: DNAI1 (protein, UniProt Q8C0M8 1-701)
chain: MPSKQIRKQSISVTRGARRRDEDSGTDVGEGTDEWSQSKATVRPPDQLELTDAELKEEFTRILTANNPHAPQNIVRYSFKEGTYKLIGFVNQMAVHFSQVGNLIPKDSDEGRRQHYRDEMVAGSQESIKVVTSEAENLEEEEEPKEGEGEAEAEAEAGSQTDIPAAAETTEKVIEEELMAPVQPKERKLTNQFNFSERASQTFNNPLRDRECQMEPPPRTNFSATANQWEIYDAYVDELEKQEKTKEKEKAKTPVAKKTEKMAMRKLTSMESQSDDITKVTQAAKIVERMVNQNTYDDVAQDFKYYEDTADEYRDQEGTLLPLWKFQNDKAKRLAVTALCWNPKYKDLFAVGHGSYDFMKQSRGMLLLYSMKNPSFPEYMFSSESGIMCLDVHVDHPYLVVVGYYDGNVAIYNLKKPHSQPCFRSTSKSGKHTDPVWQVKWQKDDMDHNLNFFSVSSDGRIVSWTLVKSELVHIDIIKLKTEGSTTEIPEGLQLHTVGCGTAFDFHKEIDYMFLVGTEEGKIYKCSKSYSSQFLDTYDAHNMAVDAVLWNPYHTKVFMSCSSDWTVKIWDHTIKTPMFIYDLNSAVGDVAWAPYSSTVFAAVTTDGKAHVFDLAVNKYEAICNQPVVAKKKNKITHVQFNPIHPIIIVGDDRGHIICLKLSPNLRKMPKEKKGQEVQKGPAVEIAKLDKLLNLVREVKTKT
For B1, the binding result in assay [1] was “binds”.

B2: ZMYND10, O75800 1-440 (protein)
chain: MGDLELLLPGEAEVLVRGLRSFPLREMGSEGWNQQHENLEKLNMQAILDATVSQGEPIQELLVTHGKVPTLVEELIAVEMWKQKVFPVFCRVEDFKPQNTFPIYMVVHHEASIINLLETVFFHKEVCESAEDTVLDLVDYCHRKLTLLVAQSGCGGPPEGEGSQDSNPMQELQKQAELMEFEIALKALSVLRYITDCVDSLSLSTLSRMLSTHNLPCLLVELLEHSPWSRREGGKLQQFEGSRWHTVAPSEQQKLSKLDGQVWIALYNLLLSPEAQARYCLTSFAKGRLLKLRAFLTDTLLDQLPNLAHLQSFLAHLTLTETQPPKKDLVLEQIPEIWERLERENRGKWQAIAKHQLQHVFSPSEQDLRLQARRWAETYRLDVLEAVAPERPRCAYCSAEASKRCSRCQNEWYCCRECQVKHWEKHGKTCVLAAQGDRAK
In the case of B2, the binding result in assay [2] is recorded as “no binding”.
